The results in this text go back to article PMC3494705.

These are yes or no findings as the source states them, for the method shown. For some assays here: A result given as binding can be weak or reduced; the word gives no strength.

The target of experiment [1] is Manduca sexta prophenoloxidase-activating proteinase 3 (PAP3), recombinant active form (M. sexta). In words: SDS-stable complex formation (SDS-PAGE and immunoblot); proteinase and rAgSRPN6 mixed at molar ratio 1:10, room temperature 10 min; SDS reducing sample buffer 95°C 5 min; 10% SDS-PAGE; Western blot with antisera against the proteinase and against AgSRPN6; both purified. (In general: In western blotting, separated proteins are transferred to a membrane and probed.)

Experiment [2] addresses serine proteinase CLIPB8. In words: SDS-stable complex formation (SDS-PAGE and immunoblot); Figure S3: serpin incubated with Factor Xa-activated proteinase; Western blot with rabbit antibodies against recombinant SRPN6Ag only; both purified.

B1: recombinant Anopheles gambiae SRPN6 (rAgSRPN6), full-length, excluding the signal peptide (protein)
chain: QWNRYYTQAPQARYTPMVRTAQRVALRHSFETDGTPAPSTVRPRPPAPPTNAPSQLPALTPDNDAKISQLVVDFMMRISRTLPQQQSRTELFSPLSIITVANLLFLGSGGSTHEEFGKVLTPSSMNWKRMHQRYGNVLANLMSPEPIDSRRDQWRRQTCPRDDDYEDGEGGPAPKSQVIRVANGIFYQKDLPMRQQYVMLARSLYGALIQPIDPQASAASTALINRWVSDVTAGKIRNMLEGPLSPSSSVVIANALYFKAKWKTQFEPLVTRDAPFFPDGLDGPSYRVKMMSMSGCLPFYRVRDSLDTTIVGLPYRDDTSTMYLIQPANSSRTAIRRLQATLTGKMLDSWISQMKLQSTMVRLPKMHLRNSVDLLQSFQKLGFNSILSPAKSDLSNMIDSSSSAGPKPYVNQILHKLDLTIDEEGTEGAAATSALVDRIGSQRQFNGNAPFLIYLRHDATGLPLFYGPIFDPR
Regarding B1, the binding result in experiment [1] was “binds”; in experiment [2] it was “no binding”.
